From paper PMC7206099
No constants are given. Whether binding was seen depends on the method and setting. Binding seen in cells or lysates may run through a third protein. Some binding calls cover weakened binding; strength is not graded here.

By UniProt entry, the sequences of proteins in these tests, tags left out. Where a name states a change or a piece, a line headed by the entry shows the natural chain unless it says otherwise. Chains listed by the source or under a name are the forms on record and can include a tag or linker. Residues count along the entry.
UniProt Q14694: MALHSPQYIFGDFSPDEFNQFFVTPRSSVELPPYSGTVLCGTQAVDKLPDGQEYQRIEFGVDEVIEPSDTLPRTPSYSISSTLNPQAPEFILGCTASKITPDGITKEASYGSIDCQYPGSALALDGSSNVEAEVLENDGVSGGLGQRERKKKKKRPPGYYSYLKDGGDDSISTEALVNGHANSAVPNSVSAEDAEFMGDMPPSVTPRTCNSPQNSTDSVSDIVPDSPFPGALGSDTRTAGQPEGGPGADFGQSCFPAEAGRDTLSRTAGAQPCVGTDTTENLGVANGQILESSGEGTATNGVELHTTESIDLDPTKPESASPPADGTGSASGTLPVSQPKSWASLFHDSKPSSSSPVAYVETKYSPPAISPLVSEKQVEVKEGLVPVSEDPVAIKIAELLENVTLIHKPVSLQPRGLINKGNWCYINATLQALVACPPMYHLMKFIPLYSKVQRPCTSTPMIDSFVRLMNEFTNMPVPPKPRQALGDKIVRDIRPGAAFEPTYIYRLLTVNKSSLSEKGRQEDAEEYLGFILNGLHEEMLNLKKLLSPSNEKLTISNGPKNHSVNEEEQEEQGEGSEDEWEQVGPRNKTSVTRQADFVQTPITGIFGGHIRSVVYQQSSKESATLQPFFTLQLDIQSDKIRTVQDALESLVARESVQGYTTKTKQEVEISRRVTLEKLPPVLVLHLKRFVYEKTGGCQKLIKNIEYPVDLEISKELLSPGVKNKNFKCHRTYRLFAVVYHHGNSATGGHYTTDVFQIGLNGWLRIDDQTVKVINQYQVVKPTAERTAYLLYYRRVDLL
USP10 very C-terminal region (amino acids 700–798), Flag-tagged deletion mutant: residues 700-798 of Q14694
UniProt Q9UBN7: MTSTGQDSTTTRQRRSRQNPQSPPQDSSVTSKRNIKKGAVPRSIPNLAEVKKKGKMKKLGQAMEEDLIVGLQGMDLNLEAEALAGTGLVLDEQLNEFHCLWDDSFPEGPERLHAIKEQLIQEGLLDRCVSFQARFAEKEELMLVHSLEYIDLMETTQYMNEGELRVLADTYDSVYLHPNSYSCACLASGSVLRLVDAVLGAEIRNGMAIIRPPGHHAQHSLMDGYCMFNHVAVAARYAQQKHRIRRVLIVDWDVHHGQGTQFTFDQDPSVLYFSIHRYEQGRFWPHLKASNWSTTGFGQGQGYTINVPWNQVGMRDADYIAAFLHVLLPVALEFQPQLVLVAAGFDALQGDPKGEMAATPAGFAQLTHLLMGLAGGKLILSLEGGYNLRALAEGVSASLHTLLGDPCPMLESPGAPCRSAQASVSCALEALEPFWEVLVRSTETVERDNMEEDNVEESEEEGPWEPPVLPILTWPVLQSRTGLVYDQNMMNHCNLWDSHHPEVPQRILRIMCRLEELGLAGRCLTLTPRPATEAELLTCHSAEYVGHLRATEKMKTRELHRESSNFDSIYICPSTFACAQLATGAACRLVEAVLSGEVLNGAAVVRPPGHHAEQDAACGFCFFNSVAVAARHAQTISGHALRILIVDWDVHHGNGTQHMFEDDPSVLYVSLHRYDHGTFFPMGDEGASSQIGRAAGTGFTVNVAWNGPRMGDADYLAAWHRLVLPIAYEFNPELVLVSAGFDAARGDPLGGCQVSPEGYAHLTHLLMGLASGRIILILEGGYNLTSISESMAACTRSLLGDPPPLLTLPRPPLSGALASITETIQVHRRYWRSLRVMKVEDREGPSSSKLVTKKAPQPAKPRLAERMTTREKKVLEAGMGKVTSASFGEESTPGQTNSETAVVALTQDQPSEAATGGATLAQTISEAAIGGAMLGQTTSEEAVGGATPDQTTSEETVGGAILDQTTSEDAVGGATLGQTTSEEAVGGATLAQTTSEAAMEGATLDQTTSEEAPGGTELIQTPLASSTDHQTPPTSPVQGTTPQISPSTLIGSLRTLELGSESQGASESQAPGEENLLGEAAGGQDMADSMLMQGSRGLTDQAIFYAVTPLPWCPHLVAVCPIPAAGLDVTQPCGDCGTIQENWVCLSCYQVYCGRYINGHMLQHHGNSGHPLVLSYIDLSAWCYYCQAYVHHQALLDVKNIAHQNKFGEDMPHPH

Legend:
[1] = molecular target: USP10 very C-terminal region (amino acids 700–798), Flag-tagged deletion mutant (UniProt Q14694); test: co-IP; Flag- and HA-tagged plasmids co-transfected in 293T cells; anti-Flag M2 agarose about 4 h at 4 °C; anti-HA Western blot
Flag-USP10 = Flag-USP10 (UniProt Q14694); test: as above
[2] = molecular target: USP10 (co-precipitation with p53, data not shown) (UniProt Q14694); test: co-IP; USP10-HDAC6 co-precipitation with p53; preliminary data, data not shown
[3] = molecular target: Ubiquitin-specific peptidase 10 (USP10), endogenous (human (endogenous in H23)) (UniProt Q14694); test: co-IP; endogenous proteins, H23 lysate (20 mM Tris-HCl pH 7.5, 150 mM NaCl, 1 mM EDTA, 1 mM EGTA, 1% Triton X-100, 10% glycerol); primary antibody 12 h at 4 °C, protein A or G beads; Western blot

**Q.** How did the binding [1] turn out when “HA-HDAC6 (from UniProt Q9UBN7 1-1215) (enzyme)” was run?
**A.** The binding was “binds”.

**Q.** And the binding (Flag-USP10)?
**A.** Its binding is “binds”.

**Q.** How did the binding [2] turn out when “HDAC6 (co-precipitation with p53, data not shown) (from UniProt Q9UBN7 1-1215) (enzyme)” was run?
**A.** Its binding is “binds”.

**Q.** “histone deacetylase 6 (HDAC6), endogenous (from UniProt Q9UBN7 1-1215)” was tested. Which binding [3] did it give?
**A.** The binding was “binds”.
